Six molecules from publication PMC4599859 can be followed below.

Protein sequences, listed by entry. Tags and fused reporters are not part of them. Lines headed by an entry give the natural chain unless they say otherwise; changes in a name come on top.
UniProt Q9FKN7: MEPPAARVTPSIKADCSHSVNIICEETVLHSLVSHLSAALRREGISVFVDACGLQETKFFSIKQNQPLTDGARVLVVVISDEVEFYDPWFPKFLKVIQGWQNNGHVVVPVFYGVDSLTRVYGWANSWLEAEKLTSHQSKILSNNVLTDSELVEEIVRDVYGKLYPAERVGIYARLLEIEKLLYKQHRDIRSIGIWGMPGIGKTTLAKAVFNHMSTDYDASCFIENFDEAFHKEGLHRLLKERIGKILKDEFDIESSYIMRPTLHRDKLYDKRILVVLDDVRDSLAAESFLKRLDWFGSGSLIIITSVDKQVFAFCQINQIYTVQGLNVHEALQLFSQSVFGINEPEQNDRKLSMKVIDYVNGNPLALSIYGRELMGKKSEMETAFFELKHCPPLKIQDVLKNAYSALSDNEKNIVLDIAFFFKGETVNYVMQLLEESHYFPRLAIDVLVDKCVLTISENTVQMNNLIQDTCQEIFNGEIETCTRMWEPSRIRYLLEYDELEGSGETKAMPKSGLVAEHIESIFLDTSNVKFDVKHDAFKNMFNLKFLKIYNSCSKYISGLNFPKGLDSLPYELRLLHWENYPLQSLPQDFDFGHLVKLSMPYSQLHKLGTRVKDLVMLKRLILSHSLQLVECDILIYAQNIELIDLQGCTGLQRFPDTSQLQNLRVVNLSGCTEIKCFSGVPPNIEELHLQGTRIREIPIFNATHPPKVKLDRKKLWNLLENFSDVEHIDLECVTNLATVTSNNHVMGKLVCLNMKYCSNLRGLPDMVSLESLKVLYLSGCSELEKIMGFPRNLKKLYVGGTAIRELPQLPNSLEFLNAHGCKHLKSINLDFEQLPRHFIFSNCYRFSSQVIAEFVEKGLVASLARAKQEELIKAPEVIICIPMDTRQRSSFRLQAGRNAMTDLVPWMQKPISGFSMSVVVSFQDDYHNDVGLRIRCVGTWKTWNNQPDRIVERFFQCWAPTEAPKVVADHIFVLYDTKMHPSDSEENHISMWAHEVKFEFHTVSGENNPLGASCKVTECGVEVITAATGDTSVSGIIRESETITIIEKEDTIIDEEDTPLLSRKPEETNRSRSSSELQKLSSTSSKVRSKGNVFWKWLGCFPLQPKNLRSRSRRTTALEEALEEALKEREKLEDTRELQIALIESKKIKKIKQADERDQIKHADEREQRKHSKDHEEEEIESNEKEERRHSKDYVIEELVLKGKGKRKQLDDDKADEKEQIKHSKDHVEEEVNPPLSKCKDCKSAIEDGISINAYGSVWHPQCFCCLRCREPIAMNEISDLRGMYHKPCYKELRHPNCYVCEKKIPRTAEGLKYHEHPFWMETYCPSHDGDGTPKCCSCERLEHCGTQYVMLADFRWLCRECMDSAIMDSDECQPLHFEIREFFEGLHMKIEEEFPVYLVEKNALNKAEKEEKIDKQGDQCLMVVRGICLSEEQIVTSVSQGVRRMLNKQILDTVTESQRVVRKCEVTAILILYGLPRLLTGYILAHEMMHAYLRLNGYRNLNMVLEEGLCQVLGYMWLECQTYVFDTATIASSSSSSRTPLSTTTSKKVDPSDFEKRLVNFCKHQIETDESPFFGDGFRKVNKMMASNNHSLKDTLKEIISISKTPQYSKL

Positions count from the first letter of the chain named. No constants are given. Whether binding was seen depends on the method and setting. Binding calls can cover weak binding; strength is not graded here. Tags and fused reporters may be left off the sequences shown. For some assays here: In cells and extracts the contact can be indirect.

Experiment [1] deals with T1, IBR5 (Indole-3-Butyric Acid Response 5) fused with the pGBKT7 vector (Arabidopsis thaliana) (UniProt Q84JU4).
T1 sequence: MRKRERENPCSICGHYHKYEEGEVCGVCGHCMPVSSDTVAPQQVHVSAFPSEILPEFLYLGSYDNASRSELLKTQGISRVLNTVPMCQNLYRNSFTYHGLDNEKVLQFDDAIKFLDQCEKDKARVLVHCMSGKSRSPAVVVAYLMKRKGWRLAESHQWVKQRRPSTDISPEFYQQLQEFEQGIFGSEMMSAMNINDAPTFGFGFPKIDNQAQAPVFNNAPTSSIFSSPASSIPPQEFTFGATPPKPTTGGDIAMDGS
As to the kind of experiment: two-hybrid; IBR5 or IBR5^C129S in pGBKT7 (bait), R protein domains in pGADT7 (prey); yeast AH109; interaction tested on SD-Trp-Leu-His-Ade medium.

For experiment [2], the target named is T2, IBR5^C129S fused with the pGBKT7 vector (Arabidopsis thaliana) (UniProt Q84JU4).
T2 sequence: T1 sequence with C129S
Described as above.

Experiment [3] addresses T3, cLuc-IBR5 (Arabidopsis thaliana) (UniProt Q84JU4).
T3 sequence: T1 sequence
The experiment in a line: split reporter; firefly luciferase complementation imaging (LCI) in N. benthamiana leaves; HSP90 or SGT1b on nLuc, IBR5 on cLuc.

Experiment [4] deals with T4, IBR5-Myc (Super:IBR5-Myc) in transgenic Arabidopsis plants (Arabidopsis thaliana) (UniProt Q84JU4).
T4 sequence: T1 sequence
The experiment in a line: co-IP; total protein of transgenic Arabidopsis plants expressing Super:IBR5-Myc (with or without Super:SGT1b-Flag); anti-Myc immunoprecipitation; blot with anti-HSP90 or anti-Flag.

Experiment [5] has as its target Myc-tagged TIR domain of CHS3 (Super:TIR-Myc) (Arabidopsis thaliana) (UniProt Q9FKN7). The experiment in a line: co-IP; two constructs co-expressed in Arabidopsis mesophyll protoplasts; extract in 150 mM NaCl, 10 mM Tris-HCl pH 7.6, 2 mM EDTA, 0.5% NP-40; anti-Myc beads, 4°C, 2 h; blot with anti-HA or anti-Flag.

Consider “CC domain of RPM1 fused with the pGADT7 vector (Arabidopsis thaliana) (domain or fragment)”, for which the binding entry in experiment [1] and in experiment [2] was “no binding” each time.
Turning to HSP90-nLuc (Arabidopsis thaliana), in experiment [3], the binding result is “binds”.
As for “TIR domain of RRS1 fused with the pGADT7 vector (Arabidopsis thaliana) (domain or fragment)”, the binding result in experiment [1] and in experiment [2] was “binds” each time.
endogenous HSP90: in experiment [4], the binding entry is “binds”.

B1: HA-Flag-IBR5 (35S:HA-Flag-IBR5) in Arabidopsis protoplasts (protein, UniProt Q84JU4 1-257)
chain: T1 sequence
B1: the binding entry in experiment [5] was “binds”.

B2: SGT1b-Flag (Super:SGT1b-Flag) in Arabidopsis (protein, UniProt Q9SUT5 1-358)
chain: MAKELAEKAKEAFLDDDFDVAVDLYSKAIDLDPNCAAFFADRAQANIKIDNFTEAVVDANKAIELEPTLAKAYLRKGTACMKLEEYSTAKAALEKGASVAPNEPKFKKMIDECDLRIAEEEKDLVQPMPPSLPSSSTTPLATEADAPPVPIPAAPAKPMFRHEFYQKPEEAVVTIFAKKVPKENVTVEFGEQILSVVIDVAGEEAYHLQPRLFGKIIPEKCRFEVLSTKVEIRLAKAEIITWASLEYGKGQSVLPKPNVSSALSQRPVYPSSKPAKDWDKLEAEVKKQEKDEKLDGDAAMNKFFSDIYSSADEDMRRAMNKSFAESNGTVLSTNWKEVGTKKVESTPPDGMELKKWEY
B2: in experiment [5], the binding entry is reported as “binds”.
